# Measured values: US4442044A, “Process for preparing monoesters and diesters of N-alkyl substituted amino methyl phosphonic acid” (priority 1983, dated 1984)
# Values joined by “and” are separate entries in the source; they are usually repeats but may differ in a detail not shown here. Equal entries are not always repeated. At least one read-out could not be matched to a standard name with certainty.
# Columns and labels:
# Experiment in all cases: post-emergent herbicidal activity, greenhouse
# Type in all cases: in vivo
# [1] = tested on: Canada Thistle; settings: Table I, 4 WAT
# Text: (§1) A good grade of top soil is placed in aluminum pans having holes in the bottom and compacted to a depth of 0.95 to 1.27 cm. from the top of the pan. A predetermined number of seeds of each of several dicotyledonous and monocotyledonous annual plant species and/or vegetative propagules for the perennial plant species were placed on the soil and pressed into the soil surface. The seeds and/or vegetative propagules are covered with soil and leveled. The pans are then placed on a sand bench in the greenhouse and watered from below as needed. After the plants reach the desired age (two to three weeks), each pan except for the control pans is removed individually to a spraying chamber and sprayed by means of an atomizer operating at a positive air pressure of approximately 1.46 kg/cm^2 absolute. The atomizer contains 6 ml. of a solution or suspension of the chemical. In that 6 ml., is an amount of a cyclohexanone emulsifying agent mixture to give a spray solution or suspension which contains about 0.4% by weight of the emulsifier. The spray solution or suspension contains a sufficient amount of the candidate chemical in order to give application rates corresponding to those set forth in the tables. The spray solution is prepared by taking an aliquot of a 1.0% by weight stock solution or suspension of the candidate chemical in an organic solvent such as acetone or tetrahydrofuran or in water. The emulsifying agent employed is a mixture comprising 35 weight percent butylamine dodecylbenzene sulfonate and 65 weight percent of a tall oil ethylene oxide condensate having about 11 moles of ethylene oxide per mole of tall oil. The pans are returned to the greenhouse and watered as before and the injury to the plants as compared to the control is observed at approximately two and four weeks as indicated in the tables under WAT and the results recorded. In some instances, the two-week observations are omitted.
# (§2) The post-emergent herbicidal activity index used in Tables I and II is as follows: […]
# [2] = tested on: Quackgrass; settings: Table I, 4 WAT, 5.6 kg/h
# Text: as §1, §2
# [3] = tested on: Lambsquarters; settings: Table I, 4 WAT, 5.6 kg/h
# Text: as §1, §2
# [4] = tested on: Downy Brome; settings: Table I, 4 WAT
# Text: as §1, §2
# [5] = tested on: Velvetleaf; settings: Table I, 4 WAT, 5.6 kg/h
# Text: as §1, §2
# [6] = tested on: Cocklebur; settings: Table I, 4 WAT
# Text: as §1, §2
# [7] = tested on: Johnsongrass; settings: Table I, 4 WAT
# Text: as §1, §2
# [8] = tested on: Yellow Nutsedge; settings: Table I, 4 WAT, 11.2 kg/h
# Text: as §1, §2
compound,measurement,setting,value
"CCOC(=O)CNCP(=O)(O)OC(C)C#N (stereo not drawn) [Example 5, glycine, N-[[(1-cyanoethoxy)hydroxy-phosphinyl]methyl]ethyl ester]",post-emergent herbicidal activity index,[1]; 5.6 kg/h,2 (50-74% control) and 3 (75-99% control)
same,post-emergent herbicidal activity index,[1]; 11.2 kg/h,2 (50-74% control) and 4 (100% control)
same,post-emergent herbicidal activity index,[2],3 (75-99% control) and 4 (100% control)
same,post-emergent herbicidal activity index,[3],2 (50-74% control) and 4 (100% control)
same,post-emergent herbicidal activity index,[4]; 5.6 kg/h,2 (50-74% control) and 3 (75-99% control)
same,post-emergent herbicidal activity index,[4]; 11.2 kg/h,3 (75-99% control) and 4 (100% control)
same,post-emergent herbicidal activity index,[5],4 (100% control) and 3 (75-99% control)
same,post-emergent herbicidal activity index,[6]; 5.6 kg/h,4 (100% control) and 3 (75-99% control)
same,post-emergent herbicidal activity index,[6]; 11.2 kg/h,3 (75-99% control) and 4 (100% control)
same,post-emergent herbicidal activity index,[7]; 5.6 kg/h,4 (100% control) and 3 (75-99% control)
same,post-emergent herbicidal activity index,[7]; 11.2 kg/h,3 (75-99% control) and 4 (100% control)
same,post-emergent herbicidal activity index,[8],3 (75-99% control) and 2 (50-74% control)
